Measurements reported in PubChem BioAssay AID540275 (National Center for Advancing Translational Sciences (NCATS), 2011).
About 620 (0.19%) of roughly 320,000 compounds were called active. This list was built around the results that the source calls inconclusive (neither active nor inactive); the mix of calls is not that of the screen. No stated cut-off is given here; in the data, active means activation above about 80%; inconclusive means between about 30% and that limit; inactive means weaker than that.
Further: 0% is about no effect.

The chains behind the UniProt entries cited, without tags or fusion partners.
UniProt Q8NER1, whole entry, looked up: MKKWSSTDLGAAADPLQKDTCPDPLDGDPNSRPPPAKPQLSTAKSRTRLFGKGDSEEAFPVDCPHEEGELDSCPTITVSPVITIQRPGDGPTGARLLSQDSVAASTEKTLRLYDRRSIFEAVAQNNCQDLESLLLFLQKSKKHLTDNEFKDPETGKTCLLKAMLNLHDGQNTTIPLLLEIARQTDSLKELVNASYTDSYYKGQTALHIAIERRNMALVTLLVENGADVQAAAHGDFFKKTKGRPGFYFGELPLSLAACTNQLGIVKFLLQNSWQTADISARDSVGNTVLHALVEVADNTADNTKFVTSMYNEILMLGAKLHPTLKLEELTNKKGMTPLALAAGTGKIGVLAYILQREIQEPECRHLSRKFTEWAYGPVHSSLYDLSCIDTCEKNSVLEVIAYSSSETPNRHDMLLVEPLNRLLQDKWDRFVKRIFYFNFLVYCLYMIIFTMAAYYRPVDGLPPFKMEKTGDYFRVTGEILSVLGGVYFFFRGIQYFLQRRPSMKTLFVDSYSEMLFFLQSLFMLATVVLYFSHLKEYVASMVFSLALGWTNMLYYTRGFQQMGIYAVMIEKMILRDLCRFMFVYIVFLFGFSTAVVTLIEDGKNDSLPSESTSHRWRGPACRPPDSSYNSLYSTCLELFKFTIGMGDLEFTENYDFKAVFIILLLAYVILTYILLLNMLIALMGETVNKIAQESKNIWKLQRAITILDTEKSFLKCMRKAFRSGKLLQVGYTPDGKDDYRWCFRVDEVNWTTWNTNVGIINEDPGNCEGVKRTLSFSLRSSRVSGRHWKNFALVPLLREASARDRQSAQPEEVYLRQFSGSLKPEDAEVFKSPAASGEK

What follows are compounds tested against Transient receptor potential cation channel subfamily V member 1 (Homo sapiens) (UniProt Q8NER1) (assay: HTS Assay for Compounds that Act as Agonists of the Vanilloid Receptor 1). Settings: TRPV1-expressing cells, Fluo-8 calcium influx, agonist mode; at 8.33 µM, hits give high values.
Method in brief: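 Fluo-8 calcium influx in TRPV1-expressing cells, kinetic read (ex 480/em 520 nm). Compound added and read 3 min for agonist activity, followed by capsaicin at EC20 final and 2 min further read for enhancement.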
For NC(=O)C1CCN(C(=O)c2ccc(-c3ccccc3Cl)o2)CC1, the activation was inconclusive: 51%. With CCOc1ccc(CCNC(=O)C2CCCN(S(=O)(=O)N3CC(C)CC(C)C3)C2)cc1OCC (stereo not given) the activation was inactive: 10.4%. For O=C(c1cc2ccccc2o1)N1CC=C(c2ccccc2)CC1, the activation was inconclusive: 47.8%. CCC(=O)Oc1ccc(C(=O)Nc2ccc([N+](=O)[O-])cc2)cc1 was tested, and the activation was inconclusive: 46.5%. In the case of Cc1cc(C)cc(NC(=S)NCc2ccncc2)c1, the activation is reported as inconclusive: 64.9%. In the case of CC(C)=Cc1oc2ccc([N+](=O)[O-])cc2c1N1CCOCC1, the activation is reported as inconclusive: 44.6%. COc1cc2c(cc1OC)[C@H](C)N(C(=O)NCc1ccccc1)CC2 was tested, and the activation was inconclusive: 62.4%. With CCN(c1ccccc1)S(=O)(=O)c1ccc(Cl)c(NC(=O)Nc2ccc(Cl)cc2C#N)c1 the activation was inactive: 2.12%. O=C(NC12CC3CC(CC(C3)C1)C2)N1CCC(O)(c2ccc3c(c2)OCO3)CC1 was tested, and the activation was inconclusive: 58.6%. For CCOC(=O)C(=NCC1CCCO1)NNc1ccccc1Cl (stereo not given), the activation was inconclusive: 48.3%. In the case of O=C(NC(=S)NC1CCCCCC1)c1cncc(Br)c1, the activation is reported as inconclusive: 54.1%. With Cc1ccc2c(COC(=O)C34CC5CC(CC(C5)C3)C4)cc(=O)oc2c1 the activation was inconclusive: 38.8%. With O=C(CN1CCC(Cc2ccccc2)CC1)N1CCc2ccccc2C1 the activation was inactive: -4.09%. In the case of CCCn1c(N)c(N(CCOC)C(=O)C2CCCC2)c(=O)[nH]c1=O, the activation is reported as inactive: 1.46%. In the case of O=C(NCCc1ccc2c(c1)OCCO2)c1cccc(F)c1, the activation is reported as inconclusive: 53.1%. For O=C(COC(=O)c1nc(Cl)ccc1Cl)NC1CCCCCC1, the activation was inactive: -4.76%. For Cc1ccc(/C=N/NC(=O)CN2CCN(S(=O)(=O)c3ccc(Br)cc3)CC2)s1, the activation was inactive: 1.86%. In the case of COc1cc(/C=C/C(=O)OCC(=O)Nc2ccc(S(=O)(=O)N3CCCC3)cc2)ccc1O, the activation is reported as inconclusive: 37.9%. For COC(=O)Cn1c(C)c(/C=C/c2cc[n+](C)cc2)c2ccccc21, the activation was inactive: 0.599%. For Cc1ccc(Nc2nc(-c3ccccc3)cs2)nc1, the activation was inconclusive: 35.4%. In the case of CCCCn1nnnc1NCc1ccc(C)s1, the activation is reported as inactive: 4.37%. With O=C(NC(=S)Nc1ccccc1N1CCCCC1)c1ccccc1 the activation was inconclusive: 37.6%. With COc1ccc(C(C(=O)NCc2ccccc2)N(Cc2ccco2)C(=O)c2snc(C(N)=O)c2N)cc1 (stereo not given) the activation was inactive: 5.66%. With CC(C)(C)c1ccc(C(=O)N2CCN(c3ccc(N4CCOCC4)nn3)CC2)cc1 the activation was inconclusive: 35.7%. With CC(C)(Oc1ccc(Cl)cc1)C(=O)OCC(=O)NCCc1ccc(S(N)(=O)=O)cc1 the activation was inconclusive: 32.1%. S=C(NCc1ccccc1)NCc1ccco1 was tested, and the activation was inconclusive: 30.1%. O=C(Cn1c(=O)c2cccn2c2ccc(F)cc21)NCCCN1CCN(c2ccccc2F)CC1 was tested, and the activation was inactive: 2.67%. COc1ccc(C2C3=C(CCCC3=O)Nc3c(-c4ccccc4)c(C)nn32)cc1 (stereo not given) was tested, and the activation was inconclusive: 59%. In the case of CN(C)S(=O)(=O)c1ccc(S(=O)(=O)N2CCN(CCC#N)CC2)cc1, the activation is reported as inactive: 0.272%. In the case of Cc1ccc(C)c(OCCCNCc2ccccc2)c1, the activation is reported as inactive: -1.31%. With COc1cccc(CC(=O)Nc2nc(-c3ccc(OC)c(OC)c3)cs2)c1 the activation was inconclusive: 60.6%. With COc1ccc(C(CCNCc2ccc(F)cc2)c2ccc(F)cc2)cc1 (stereo not given) the activation was inconclusive: 39.4%. For Cc1ccsc1/C=C/c1ccc2cccc(O)c2n1, the activation was inactive: 2.55%. CCCN(CC(=O)Nc1ccccc1C)C(=O)c1ccc(C)c(S(=O)(=O)N2CCCCC2)c1 was tested, and the activation was inconclusive: 31.3%. O=C(NCCc1ccccc1)c1ccccc1F was tested, and the activation was inconclusive: 40.6%. CCC1=NN(C(=O)CCc2ccccc2O)C(O)(C(F)(F)F)C1 (stereo not given) was tested, and the activation was inactive: -0.575%. NC(=O)N\N=C/C=C/C=C/c1ccc(F)cc1 was tested, and the activation was inconclusive: 33.8%. For CC(C)(C)c1ccc(C(=O)NNc2cc(N3CCCCC3)nc(N3CCCCC3)n2)cc1, the activation was inactive: -2.55%. CCOC(=O)c1c(NC2OC(=O)c3c2ccc(OC)c3OC)sc(C(=O)OC(C)(C)C)c1C (stereo not given) was tested, and the activation was inconclusive: 53.3%. With Cc1cc2c(NCCc3ccccc3)ncnc2s1 the activation was inconclusive: 64.8%. Cc1ccc(C(C(=O)NCC2CCCO2)N(C(=O)c2snc(C(N)=O)c2N)c2ccc(C(C)C)cc2)o1 (stereo not given) was tested, and the activation was inconclusive: 43.3%. In the case of CCOC(=O)CC/C(C)=N\N=C1\SC(CC(=O)O)C(=O)N1c1ccccc1 (stereo not given), the activation is reported as inactive: -1.86%. For O=C(Nc1ccccc1)N1N=C(c2ccc(F)cc2)CC1c1ccc(F)cc1 (stereo not given), the activation was inconclusive: 54.4%. Cc1cc(C)n(C(=O)c2ccc(C)c(S(=O)(=O)N3CCCCC3)c2)n1 was tested, and the activation was inconclusive: 36.5%. COc1ccc(-c2nc(CC(=O)O)cs2)cc1OC was tested, and the activation was inactive: -2.54%. In the case of O=c1c2cc3c(cc2[nH]c(=S)n1C1CCN(Cc2ccccc2)CC1)OCO3, the activation is reported as inactive: 0.639%. For Cc1ccc(N=C2NC(=O)c3cc([N+](=O)[O-])ccc32)cc1, the activation was inactive: 4.15%. With O=C(NCCSc1ccccc1)c1ccccc1 the activation was inconclusive: 41.8%. In the case of Cn1c(=O)c(NCCc2ccccc2)c2c3c(cccc31)C(=O)c1ccccc1-2, the activation is reported as active: 92.5%. For C=CCNc1nnnc2c1sc1nc(N3CCOCC3)c3c(c12)CCCC3, the activation was inconclusive: 60.2%. In the case of O=C(CSc1nc2ccccc2s1)NCc1cc([N+](=O)[O-])ccc1O, the activation is reported as inactive: 14%. CCOc1ccc(Nc2nc(N)nc(CSC(=S)N3CCOCC3)n2)cc1 was tested, and the activation was inconclusive: 55.3%. O=C1c2cccc3cccc(c23)C(=O)N1CCN1CCN(CC(O)COCc2ccc(Cl)cc2)CC1 (stereo not given) was tested, and the activation was inactive: 1.24%. In the case of O=C(CCCN1C(=O)/C(=C/c2ccccc2)SC1=S)NCCCn1ccnc1, the activation is reported as inactive: 2.15%. CCO[C@@H]1OC(C(=O)Nc2ccccc2)=C[C@H](c2ccccc2)[C@H]1CCCO was tested, and the activation was inconclusive: 31.5%. For COc1ccc(Cc2nc3ccccc3n2CC(=O)N/N=C/c2ccccc2)cc1OC, the activation was inactive: -0.66%. In the case of Cc1ccc(-c2nc(CS(=O)(=O)CC(=O)NC3CCCCCC3)c(C)o2)cc1, the activation is reported as inconclusive: 35.2%. CC(CCc1ccccc1)NC(=O)Cc1cccs1 (stereo not given) was tested, and the activation was inconclusive: 45.6%. For CC(CCc1ccccc1)NC(=O)COC(=O)C12CC3CC(CC(Br)(C3)C1)C2 (stereo not given), the activation was inconclusive: 41.1%. In the case of O=C(O)C1(Cc2nc3ccccc3[nH]2)CCCC1, the activation is reported as inactive: 0.709%. In the case of O=C1/C(=C/c2cccnc2)SC(=S)N1c1ccc(F)cc1, the activation is reported as inactive: 0.797%. For Cc1cccc2cc3c(NC(=O)C(C)(C)C)nn(CC(C)C)c3nc12, the activation was inconclusive: 50.7%. In the case of CC(=O)c1c(C)[nH]c(C(=O)Nc2ccccc2Cl)c1C, the activation is reported as inactive: 2.33%. CC(C)c1ccc2oc(=O)cc(CN3CCOCC3)c2c1 was tested, and the activation was inconclusive: 41.2%. With CCc1ccc(Nc2cnn(-c3nc4ccccc4s3)c(=O)c2Cl)cc1 the activation was inconclusive: 57.7%. With O=Cc1c(NCc2ccc(Cl)cc2)c2ccccc2[nH]c1=O the activation was inactive: 18.3%. In the case of CCOC(=O)CCCc1ccc(/C(C)=N/NC(N)=S)cc1, the activation is reported as inactive: -2.68%. For COc1cccc(CNC(=O)N2CCN(c3ccccc3)CC2)c1, the activation was inconclusive: 40.4%. With CN(Cc1ccccc1)C(=O)c1ncn(C)c1C(=O)N(C)Cc1ccccc1 the activation was inactive: 2.92%. In the case of O=[N+]([O-])c1cc([N+](=O)[O-])c(Oc2c(F)cc(F)cc2F)cc1NN1CCCCC1, the activation is reported as inconclusive: 35.7%. CN(C)C=Nc1ncc2c3ccccc3n(Cc3ccccc3)c2c1C#N was tested, and the activation was inconclusive: 75.2%. With Cc1ccsc1/C=N/Nc1nc(Cl)c(Cl)cc1Cl the activation was inactive: 0.248%. COc1ccc(CNC(=S)Nc2cccc(OC)c2)cc1 was tested, and the activation was inconclusive: 49%. In the case of CCOc1ccc(-c2ccc(SCc3ccccn3)nn2)cc1, the activation is reported as inconclusive: 32.5%. S=C(NCc1ccc(Cl)cc1)NC1CCCCC1 was tested, and the activation was inconclusive: 65.6%. With Cc1cccc(NC(=O)c2nc[nH]c2C(=O)N[C@@H](Cc2ccccc2)C(=O)OC(C)(C)C)c1 the activation was inconclusive: 47.3%. For C[C@H](NC(=O)c1nc[nH]c1C(=O)NCc1ccccc1)c1ccccc1, the activation was inconclusive: 43.3%. For CCCCCCC(=O)Nc1ccc(C(=O)N/N=C/c2cccnc2)cc1, the activation was active: 85.7%. In the case of Cc1ccc(-c2c(C(=O)N/N=C/c3ccc(OC(C)C)cc3)nnn2-c2nonc2N)cc1, the activation is reported as inactive: -2.94%. For CCOc1ccc(/C=C/C(=O)Nc2cccc(C(C)=O)c2)cc1, the activation was inconclusive: 48.8%. For CCc1ccc(NC(=O)c2ccccc2NC(=O)C2CCCO2)cc1 (stereo not given), the activation was inconclusive: 49.5%. For CN1CCN(C(=S)NC(=O)/C=C/c2cccc3ccccc23)CC1, the activation was inactive: -2.67%. For COc1ccc(CCNC(=O)COC(=O)COc2c(C)cc(C)cc2C)cc1OC, the activation was inconclusive: 39.9%. In the case of CS(=O)(=O)c1ccc(Cl)c(NC(=O)CN2CCCC2c2ccc3c(c2)OCCCO3)c1 (stereo not given), the activation is reported as inconclusive: 45.5%. O=C(c1ccco1)N1CCN(C23CC4CC(CC(C4)C2)C3)CC1 was tested, and the activation was inactive: 18.7%. C=C(C)COc1ccc2c(C)c(C)c(=O)oc2c1OCC(=C)C was tested, and the activation was inconclusive: 37.8%. Cc1ccc(CNC(=O)C2CCCN(C(=O)Nc3ccc(F)cc3)C2)cc1 (stereo not given) was tested, and the activation was inconclusive: 47.4%. COc1cccc(/C=N/n2c(N)c(S(=O)(=O)c3cccs3)c3nc4ccccc4nc32)c1OC was tested, and the activation was inactive: -3.24%. In the case of CCNC(=O)n1nccc1C(C)Oc1cccc(C(F)(F)F)c1 (stereo not given), the activation is reported as inconclusive: 34.9%. In the case of COc1ccc(OC)c(-n2c(-c3ccccc3)n[nH]c2=S)c1, the activation is reported as inactive: -2.03%.
